Data taken from US5650488A, “Polypeptide inhibitor of the replication of HSV” (British Technology Group Limited, priority 1991, dated 1997).
Part of at least one peptide drawing is inferred or uncertain, most often the ends. Ends that are not written are not given here.

By UniProt entry, the sequences of proteins in these tests, tags left out. Where a name states a change or a piece, a line headed by the entry shows the natural chain unless it says otherwise.
UniProt P51610: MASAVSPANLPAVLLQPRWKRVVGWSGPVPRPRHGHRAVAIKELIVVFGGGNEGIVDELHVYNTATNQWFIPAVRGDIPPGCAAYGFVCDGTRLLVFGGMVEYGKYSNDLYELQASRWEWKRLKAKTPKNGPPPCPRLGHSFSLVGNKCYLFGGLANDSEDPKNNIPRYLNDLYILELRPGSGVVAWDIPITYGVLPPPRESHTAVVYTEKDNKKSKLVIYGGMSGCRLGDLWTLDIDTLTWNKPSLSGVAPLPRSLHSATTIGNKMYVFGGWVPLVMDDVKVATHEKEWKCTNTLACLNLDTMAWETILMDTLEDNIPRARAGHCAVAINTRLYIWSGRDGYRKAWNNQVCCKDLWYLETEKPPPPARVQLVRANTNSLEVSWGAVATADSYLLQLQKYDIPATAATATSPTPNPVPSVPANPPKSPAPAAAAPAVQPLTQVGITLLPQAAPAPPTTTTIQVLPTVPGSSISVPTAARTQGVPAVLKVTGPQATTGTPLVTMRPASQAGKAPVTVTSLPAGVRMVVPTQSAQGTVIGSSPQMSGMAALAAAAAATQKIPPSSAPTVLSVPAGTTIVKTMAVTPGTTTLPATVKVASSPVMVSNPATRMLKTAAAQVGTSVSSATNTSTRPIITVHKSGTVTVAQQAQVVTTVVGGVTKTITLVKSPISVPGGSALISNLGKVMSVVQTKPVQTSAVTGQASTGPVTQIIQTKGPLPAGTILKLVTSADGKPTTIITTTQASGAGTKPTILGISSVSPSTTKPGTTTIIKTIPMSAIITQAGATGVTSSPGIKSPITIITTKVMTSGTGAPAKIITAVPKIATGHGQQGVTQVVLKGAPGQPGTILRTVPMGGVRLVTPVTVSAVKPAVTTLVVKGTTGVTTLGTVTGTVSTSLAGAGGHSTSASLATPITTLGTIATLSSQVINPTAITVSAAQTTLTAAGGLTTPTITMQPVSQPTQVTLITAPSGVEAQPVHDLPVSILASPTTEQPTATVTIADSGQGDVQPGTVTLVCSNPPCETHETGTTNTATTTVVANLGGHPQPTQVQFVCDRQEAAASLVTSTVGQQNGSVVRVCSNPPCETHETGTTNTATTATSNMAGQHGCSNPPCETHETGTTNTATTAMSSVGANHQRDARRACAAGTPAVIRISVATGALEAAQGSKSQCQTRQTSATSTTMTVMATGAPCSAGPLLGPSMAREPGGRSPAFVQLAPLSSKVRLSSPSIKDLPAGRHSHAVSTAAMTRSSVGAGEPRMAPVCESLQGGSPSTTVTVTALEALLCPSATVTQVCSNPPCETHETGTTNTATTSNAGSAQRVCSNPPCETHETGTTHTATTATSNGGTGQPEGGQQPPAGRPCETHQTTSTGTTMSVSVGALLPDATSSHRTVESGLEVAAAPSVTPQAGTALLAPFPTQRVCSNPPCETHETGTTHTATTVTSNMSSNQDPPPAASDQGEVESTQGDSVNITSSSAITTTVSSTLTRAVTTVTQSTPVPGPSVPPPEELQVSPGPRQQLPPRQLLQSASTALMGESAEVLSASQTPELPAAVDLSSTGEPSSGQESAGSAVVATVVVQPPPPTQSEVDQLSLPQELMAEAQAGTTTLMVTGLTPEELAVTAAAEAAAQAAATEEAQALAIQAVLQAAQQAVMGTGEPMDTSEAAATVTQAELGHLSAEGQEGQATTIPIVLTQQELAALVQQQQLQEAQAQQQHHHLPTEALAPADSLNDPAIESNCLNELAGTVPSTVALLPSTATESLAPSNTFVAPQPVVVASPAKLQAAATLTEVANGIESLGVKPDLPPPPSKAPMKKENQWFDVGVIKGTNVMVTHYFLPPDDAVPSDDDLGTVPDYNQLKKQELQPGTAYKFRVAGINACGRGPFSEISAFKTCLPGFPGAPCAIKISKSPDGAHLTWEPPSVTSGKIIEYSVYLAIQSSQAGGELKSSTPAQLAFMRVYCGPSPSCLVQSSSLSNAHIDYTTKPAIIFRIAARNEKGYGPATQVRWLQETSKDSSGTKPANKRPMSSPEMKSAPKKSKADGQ

Biological target: T1, TRF/Vmw 65/CFF complex (Homo sapiens, UniProt P51610)
T1 construct: A nuclear extract of HeLa cells was prepared; from tissue; host or cells: HeLa cell nuclear extract (TRF, CFF)
Assay: Peptide inhibition of quaternary complex assembly (gel retardation with HeLa nuclear extract, purified Vmw 65 and 32P-labelled TAATGARAT probe)
Assay type: biochemical, HSV-1
Design: key to Level of Inhibition: "+++" indicates a high level inhibition of complex formation; "++" indicates a lower level and so on; "-" indicates no inhibition of complex formation
Details: for Level of Inhibition: inhibition of complex formation, experiment of Example 1 repeated with various Vmw-65 polypeptides; for inhibiting complex formation (result in words): summary of the Table
Procedure: A nuclear extract of HeLa cells was prepared exactly as described by Dignam et al., Nucl. Acids. Res. 11 1475-1489, (1983) (This is a standard protocol for the preparation of extracts containing cellular DNA binding proteins). Polypeptides from Vmw 65 amino acids were synthesised by Cambridge Research Biochemicals Ltd., Cambridge, UK, under contract, in accordance with the sequence set forth above. 1 μl volumes of phosphate buffered saline containing increasing amounts (100 ng, 500 ng, 1 μg, 2.5 μg, 5μg) of the polypeptide (amino acids 360-367) was added to a standard amount of HeLa cell nuclear extract (1 μl extract per 2 μg polypeptide). After incubation at 20° C. for 30 minutes a 1 μl sample of Vmw 65 protein, purified as described by P. O'Hare et al., EMBO J. 7: 4231-4238 (1988) was added to the extract polypeptide mixtures and incubation continued for a further 5 minutes in a buffer containing 25 mM HEPES pH 7.9, 1 mM EDTA, 5 mM DTT, 100 mM KCl, 0.05% NP40 10% glycerol, and 2 μg of salmon sperm DNA. A ^32 P radioactively labelled probe present in excess and encompassing nucleotides -171 to -149 (numbered starting upstream of the site of mRNA transcription: the TAATGARAT sequence is at -162 to -154) of the immediate-early IE110K gene of HSV-1 was then added and incubation continued for a further 25 minutes. The products were then separated on 4% non-denaturing polyacrylamide gels at 200 volts for 2 hours. These procedures are essentially as described in O'Hare and Goding, Cell 52: 435-445 (1988).
The polypeptides tested included one comprising the region 360-366 of Vmw-65 and another comprising the region 355-367. This latter polypeptide is an example of a polypeptide of the present invention being flanked by a flanking stabilizing region. In the Table the results of the experiment are shown as follows: "+++" indicates a high level inhibition of complex formation, "++" indicates a lower level and so on. "-" indicates no inhibition of complex formation.

Substance | Level of Inhibition | inhibiting complex formation (result in words)
REHAYSRA [360-367, Arg Glu His Ala Tyr Ser Arg Ala] | ++ | effective
REHAYSR [360-366] | ++ | effective
EHAYSRA [361-367] | - | 
